Holding throughout (details): 10 µM; pre-incubation: 30-90 min
In test [1] the test system is Danio rerio larvae (5 dpf, TLF). The experiment in a line: OMR-Perf (SSMD vs DMSO vehicle); higher = higher than vehicle (e.g. higher dark-flash O-bend response probability, or better optomotor performance).
The test system is the same in test [2]. Briefly: Prob-Test (SSMD vs DMSO vehicle); higher = higher than vehicle (e.g. higher dark-flash O-bend response probability, or better optomotor performance).
Test [3] has the same test system. The experiment in a line: Prob-Naive (SSMD vs DMSO vehicle); higher = higher than vehicle (e.g. higher dark-flash O-bend response probability, or better optomotor performance).
For test [4] the test system is unchanged. The experiment in a line: Prob-Train (SSMD vs DMSO vehicle); higher = higher than vehicle (e.g. higher dark-flash O-bend response probability, or better optomotor performance).

The other results are listed elsewhere or left out. Repeats in this data set agree poorly, so a single value says little.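 Free-swimming zebrafish larvae were scored for O-bend response probability to dark flashes (naive: first five; training: remaining flashes of four 60-flash blocks; test: later 60-flash block) and for turning toward alternating leftward/rightward LED motion (OMR). Six treated larvae were compared with sixty 0.1% DMSO controls; |SSMD|≥2 defined a hit.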

Turning to `CC(=O)Nc1cccc(-n2c(=O)n(C3CC3)c(=O)c3c(Nc4ccc(I)cc4F)n(C)c(=O)c(C)c32)c1`, the OMR-Perf in test [1] is -0.77. This compound also came in with a Prob-Test in test [2] of -1.94. Also, the Prob-Naive in test [3] was found to be 0.289. This compound also registered a Prob-Train in test [4] of -1.05.

On to `CC(C)NCC(O)c1ccc(O)c(O)c1.Cl` (centres undefined) [Isoprenaline HCl], for which the OMR-Perf in test [1] was 0.233. Besides, the Prob-Test in test [2] was 0.209. In addition, the Prob-Naive in test [3] was determined as 0.394. In addition, the Prob-Train in test [4] is -0.0883.

In test [1], `Cn1cncc1[C@@](N)(c1ccc(Cl)cc1)c1ccc2c(c1)c(-c1cccc(Cl)c1)cc(=O)n2C` [Tipifarnib] yielded an OMR-Perf of -0.764. For the same compound, in test [2], the Prob-Test is -1.61. In test [3], this compound came in with a Prob-Naive of 0.459. Moreover, in test [4], the Prob-Train is -0.75.

In turn, `COc1c(C)cnc(Cn2cnc3c(Cl)nc(N)nc32)c1C` returned an OMR-Perf in test [1] of -0.237. Further, the Prob-Test in test [2] was -0.809. Also, in test [3], the Prob-Naive is -0.102. This compound also yielded a Prob-Train in test [4] of -0.101.

In turn, `Cc1cc(O)c2c(c1)C(=O)c1cccc(O)c1C2=O` [Chrysophanic Acid] gave an OMR-Perf in test [1] of -0.819. Further, the Prob-Test in test [2] was -0.808. For the same compound, the Prob-Naive in test [3] is -0.13. Further, the Prob-Train in test [4] is -0.402.

With `COc1cc2nccc(Oc3ccc(NC(=O)NC4CC4)c(Cl)c3)c2cc1C(N)=O` [Lenvatinib (E7080)], in test [1], the OMR-Perf stood at 0.539. Also, in test [2], the Prob-Test amounted to 0.0997. The compound also returned a Prob-Naive in test [3] of 0.173. Also, the Prob-Train in test [4] was found to be 0.0994.

Turning to `Cc1cnc(Nc2ccc(N3CCN(C)CC3)cc2)nc1Nc1cccc(S(=O)(=O)NC(C)(C)C)c1`, the OMR-Perf in test [1] is -0.199. Also, the Prob-Test in test [2] turned out to be 0.18. Further, the Prob-Naive in test [3] is -0.06. The Prob-Train in test [4] came to 0.277.

For the compound `C[C@]1(O)C[C@@H](c2nc(-c3ccc4ccc(-c5ccccc5)nc4c3)c3c(N)nccn32)C1` [OSI-906 (Linsitinib)], in test [1], the OMR-Perf was -0.404. Also, in test [2], the Prob-Test is -0.51. The same compound returned a Prob-Naive in test [3] of -1.11. The compound further gave a Prob-Train in test [4] of -0.769.

As for `COc1cc2c(cc1OC)[C@@H]1Cc3ccc(OC)c(OC)c3CN1CC2` [Rotundine], the OMR-Perf in test [1] was -0.45. For the same compound, the Prob-Test in test [2] was -0.507. In test [3], the Prob-Naive was determined as 0.028. This compound also displayed a Prob-Train in test [4] of -0.73.

Compound `COc1ccc(-c2ccc3ncc4c(c3c2)n(-c2ccc(N3CCNCC3)c(C(F)(F)F)c2)c(=O)n4C)cn1.O=C(O)/C=C\C(=O)O` came in with an OMR-Perf in test [1] of -0.462. Also, the Prob-Test in test [2] was -1.19. In addition, the Prob-Naive in test [3] was -0.567. In addition, in test [4], the Prob-Train was -1.26.

Consider `COc1cc2ncnc(Nc3ccc(Cl)cc3F)c2cc1OC`, for which, in test [1], the OMR-Perf was found to be 0.729. Besides, the Prob-Test in test [2] was -0.372. The same compound registered a Prob-Naive in test [3] of -0.304. The same compound registered a Prob-Train in test [4] of -0.371.

For the origin of these results see the supplement of paper PMC10727501.
